For one substance, binding results are on record in article PMC8079451, “Phosphopeptide interactions of the Nbs1 N-terminal FHA-BRCT1/2 domains” (Scientific Reports, 2021).

Sequences of proteins named here, by UniProt entry; tags and fusion partners are left off. Residues count along the entry.
UniProt O60934, residues 1-384: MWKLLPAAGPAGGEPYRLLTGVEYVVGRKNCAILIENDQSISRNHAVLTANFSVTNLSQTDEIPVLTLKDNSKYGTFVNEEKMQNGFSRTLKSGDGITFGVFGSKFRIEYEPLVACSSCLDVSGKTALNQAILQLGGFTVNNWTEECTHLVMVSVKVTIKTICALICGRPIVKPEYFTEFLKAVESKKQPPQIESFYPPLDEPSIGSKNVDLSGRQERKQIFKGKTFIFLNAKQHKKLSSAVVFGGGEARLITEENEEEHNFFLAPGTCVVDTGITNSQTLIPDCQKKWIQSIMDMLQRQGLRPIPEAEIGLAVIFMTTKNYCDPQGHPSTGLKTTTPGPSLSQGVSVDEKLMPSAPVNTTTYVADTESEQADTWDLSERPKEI

Results are given in words; binding and its absence hold for the method and conditions named.

Common to all, as to assay: fluorescence polarisation; 100 nM FITC-labeled phosphopeptide with increasing hsNbs1(384); room temperature, 15 min incubation; 25 mM HEPES pH 7.4, 150 mM NaCl, 1 mM EDTA, 2 mM DTT, 0.05% Tween20, 0.1% BSA; one-site model; both purified
On the technique in general: Polarisation of emitted light reports the rotation of a fluorescent probe.

Experiment [1] deals with T1, XRCC1 pS518,pT519 phosphopeptide FITC-GG-DPYAG(pSpT)… (human).
T1 sequence (peptide, phosphoserine pS518, phosphothreonine pT519; FITC on the N-terminus (FITC-GG-)): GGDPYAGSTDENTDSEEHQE

For experiment [2], the target named is T2, XRCC1 pS447 phosphopeptide FITC-GG-AGPS(pS)PQKP (human).
T2 sequence (peptide, phosphoserine pS447; FITC on the N-terminus (FITC-GG-)): GGAGPSSPQKP

The target in experiment [3] is T3, CtIP pS327 phosphopeptide FITC-GG-TRVS(pS)PVFGAT (human).
T3 sequence (peptide, phosphoserine pS327; FITC on the N-terminus (FITC-GG-)): GGTRVSSPVFGAT

For “hsNbs1(384), the N-terminal 384 residues of homo sapiens Nbs1 containing the FHA-BRCT1-BRCT2 domains (from UniProt O60934 1-384) (domain or fragment)”, the binding entry in experiment [1] is on record as “no binding (tested: > 65 µM)”; in experiment [2] it was “no binding”; in experiment [3], “no binding”.
